Results deposited as PubChem BioAssay AID686938 (Drosophila RNAi Screening Center, 2013)
Assay: 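Knock-downs reducing store-operated calcium influx in Drosophila cells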 (primary screen). System: Drosophila S2R+ cells. Reagents: long dsRNA against Drosophila genes, about 0.25 µg dsRNA per well, roughly 10,000 cells. Timing: 5 days of knock-down before the calcium assay. Treatment: thapsigargin (SERCA pump blocker) to empty calcium stores; entry signal taken 4 min after adding it. Measurement: 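Duplicate raw fluo-4 intensities per well from a plate reader, at rest and four minutes after thapsigargin emptied calcium stores; entry-to-rest ratio filled for only some wells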. Reading the numbers: calcium entry signal: higher = stronger calcium signal after store depletion; resting calcium signal: higher = higher resting calcium signal. Units: calcium entry signal in fluorescence units; resting calcium signal in fluorescence units. Call rule: 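Called when the plate z-score of the entry-to-rest ratio, mean of duplicates, falls below −3; wells with low overall dye signal (Fmax z below −2) or more than five off-targets excluded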. Meaning of the calls: active = strongly reduced calcium entry; inactive = no strong reduction.
In all, the deposit lists about 23,000 reagents; this is a random part of those with a known target gene and a result. Over the whole deposit, 75 (0.33%) got an active call. 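Raw plate signals without normalisation; calls rest on plate z-scores that were not deposited; ratio present for only 364 wells.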 A number with no mark means an inactive call. Names joined by + are all predicted targets of the reagent. Not stated in the record: the dose of the treatment.

Gene	amplicon	calcium entry signal, replicate 1	calcium entry signal, replicate 2	resting calcium signal, replicate 1	resting calcium signal, replicate 2
RhoGAP16F	DRSC20025	3.37e7	3.93e7	1.61e7	1.73e7
Arp3	DRSC09669	5.14e7	4.14e7	3.47e7	1.66e7
aurB	DRSC03548	2.71e7		1.86e7	
aurB	DRSC23324	3.38e7	4.20e7	2.06e7	2.25e7
pps	DRSC16057	3.61e7	4.70e7	1.97e7	2.35e7
Fip1	DRSC12147	3.37e7	3.75e7	1.61e7	2.35e7
Gbeta5	DRSC17754	3.35e7	3.70e7	1.49e7	1.56e7
Teh1	DRSC14544	4.35e7	4.02e7	2.21e7	2.17e7
cyst	DRSC02023	3.48e7		1.80e7	
CG6295	DRSC16012	2.87e7	4.61e7	1.44e7	1.97e7
Hrb87F	DRSC16708	3.00e7	3.36e7	1.21e7	1.53e7
Rpn6	DRSC07541	1.32e7	2.51e7	1.07e7	1.71e7
CG31370	DRSC21453	3.42e7	3.52e7	2.05e7	1.50e7
ND-PDSW	DRSC00715	4.83e7		2.27e7	
Acp32CD	DRSC01858	2.85e7	4.10e7	1.41e7	1.73e7
CG33506	DRSC05981	2.83e7	3.77e7	1.40e7	1.84e7
CG30001	DRSC05191	3.04e7	6.58e7	1.70e7	2.88e7
CG3841	DRSC02730	3.21e7	6.17e7	1.68e7	2.61e7
CG31473	DRSC15443	4.10e7	3.23e7	1.89e7	1.46e7
CG40045	DRSC21232	4.36e7	3.41e7	2.19e7	1.66e7
CG30440	DRSC04775	1.42e7	2.23e7	7.33e6	1.92e7
CG30440	DRSC04845	3.66e7	4.03e7	1.86e7	1.86e7
CG30440	DRSC04855	3.61e7	3.94e7	1.86e7	1.80e7
CG4476	DRSC10424	3.26e7	3.57e7	1.76e7	1.57e7
CG30378	DRSC05071	3.24e7	5.87e7	1.60e7	2.37e7
Arp5	DRSC16350	5.63e7	4.22e7	2.55e7	1.92e7
CG31200	DRSC15285	4.26e7	5.34e7	6.92e7	2.41e7
CG5493 + CG5327	DRSC06938	5.02e7	5.90e7	2.23e7	2.69e7
CG31886	DRSC03248	5.84e7		2.65e7	
CG1662	DRSC19754	4.08e7	4.39e7	1.77e7	1.88e7
Atu	DRSC12123	3.98e7	4.26e7	1.82e7	1.88e7
pav	DRSC08730	3.34e7 (active)	3.06e7	2.06e7	2.09e7
PolE1	DRSC16112	3.34e7	3.39e7	1.46e7	1.41e7
CG5877	DRSC19963	3.29e7	3.71e7	1.57e7	1.61e7
Trs20	DRSC10489	3.43e7	5.95e7	1.66e7	2.34e7

Reformatted: 7 of the entries above.
Gene | amplicon | calcium entry signal, replicate 1 | calcium entry signal, replicate 2 | resting calcium signal, replicate 1 | resting calcium signal, replicate 2
Rpn6 | DRSC07541 | 1.32e7 | 2.51e7 | 1.07e7 | 1.71e7
CG31370 | DRSC21453 | 3.42e7 | 3.52e7 | 2.05e7 | 1.50e7
ND-PDSW | DRSC00715 | 4.83e7 | – | 2.27e7 | –
Acp32CD | DRSC01858 | 2.85e7 | 4.10e7 | 1.41e7 | 1.73e7
CG33506 | DRSC05981 | 2.83e7 | 3.77e7 | 1.40e7 | 1.84e7
CG30001 | DRSC05191 | 3.04e7 | 6.58e7 | 1.70e7 | 2.88e7
CG3841 | DRSC02730 | 3.21e7 | 6.17e7 | 1.68e7 | 2.61e7

Additional entries follow:
Gene	amplicon	calcium entry signal, replicate 1	calcium entry signal, replicate 2	resting calcium signal, replicate 1	resting calcium signal, replicate 2
Argp	DRSC16510	3.19e7	4.72e7	1.56e7	6.20e7
CG32053	DRSC10683	3.67e7	2.76e7	2.55e7	1.14e7
mi	DRSC04498	4.16e7		2.07e7	
E(spl)m2-BFM	DRSC16991	4.28e7	5.59e7	2.65e7	2.77e7
E(spl)m2-BFM	DRSC23082	4.34e7	3.14e7	2.12e7	1.46e7
oxt	DRSC08522	4.60e7	3.95e7	2.13e7	2.00e7
Ppat-Dpck	DRSC09744	4.20e7	5.43e7	2.08e7	2.30e7
pippin	DRSC04489	2.70e7		1.36e7	
Gr98c	DRSC22212	3.92e7	6.41e7	1.92e7	3.43e7
Trissin	DRSC14994	2.29e7	2.66e7	1.12e7	4.10e7
MRP	DRSC02942	1.37e8		4.97e7	
CG8519	DRSC10985	3.34e7	5.20e7	1.60e7	2.31e7
Jon25Biii	DRSC03115	4.14e7	3.62e7	1.93e7	1.80e7
GstD4	DRSC16685	2.79e7	3.24e7	1.40e7	1.65e7
CG13884	DRSC08354	4.05e7	4.50e7	2.02e7	1.99e7
CG43077	DRSC19168	3.02e7	3.45e7	1.54e7	1.58e7
HINT1	DRSC00548	3.76e7	4.82e7	1.65e7	1.85e7
Gpo1	DRSC07128	2.82e7	2.55e7	1.41e7	1.53e7
OdsH	DRSC20263	3.74e7	2.95e7	1.81e7	1.25e7
CG33191 + Pif1B	DRSC12706	4.10e7	4.53e7	1.92e7	2.28e7
Dh44	DRSC12747	1.79e7	2.78e7	9.08e6	1.31e7
Dh44	DRSC16409	4.04e7	3.24e7	1.97e7	1.81e7
Gal	DRSC03134	3.42e7	3.59e7	1.73e7	1.62e7
ItgaPS5	DRSC04501	4.56e7	4.97e7	2.32e7	2.24e7
msl-3	DRSC11371	3.42e7	3.59e7	1.68e7	1.55e7
Or82a	DRSC11996	3.45e7	3.33e7	1.74e7	1.55e7
CG14683	DRSC17035	3.74e7	4.98e7	1.53e7	2.02e7
CG6071	DRSC10579	2.17e7	2.58e7	1.12e7	1.25e7
CG31735	DRSC01518	2.94e7	4.38e7	1.68e7	2.14e7
p38c	DRSC22939	5.42e7	3.57e7	2.75e7	1.64e7
Cyp6a20	DRSC07380	3.49e7	3.59e7	1.71e7	1.70e7
Usf	DRSC18129	3.62e7	4.06e7	1.79e7	2.03e7
Trf4-2	DRSC15237	4.04e7	4.51e7	1.97e7	1.87e7
CG13796 + CG31904	DRSC22161	3.03e7	4.42e7	1.50e7	2.10e7
SmB	DRSC03437	2.10e7		1.81e7	
msps	DRSC17004	3.04e7	2.55e7	1.51e7	1.38e7
His2Av	DRSC16702	4.01e7	5.08e7	2.10e7	2.58e7
CG16786	DRSC04281	3.13e7	3.83e7	1.76e7	1.78e7
Swt1	DRSC20028	3.59e7	4.10e7	1.63e7	1.83e7
mAChR-A	DRSC04702	3.98e7	5.46e7	2.11e7	2.22e7
